{"source": "PubChem BioAssay AID624134", "about": "(Broad Institute, 2012)", "note": "Hit rate of the full screen: of about 1,600 compounds, about 1,100 (69%) were called active. The set was probably picked from earlier hits. The entries are a selection whose mix differs from that of the whole data set. Entries with a potency or affinity are not part of this list. Records with an inconclusive call do not appear.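 How the source made its calls: active means signal drop with fitted half-maximal concentration no higher than twice the top valid tested concentration; inconclusive means flat curve with 30 to 70% signal loss, or poor fit; inactive means the rest, including signal rises and flat curves within 30%.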"}
{"test": "loss of viability in HepG2 cells – cell-based, CellTiter-Glo, cherry-picked, cytotoxicity control for Shn3 inhibitor project, dose response (AID 624134);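 further: 0% = median of neutral control wells and -100% = median of positive control wells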", "conditions": "CellTiter-Glo ATP luminescence, 48 h; at 35 µM (top of the series)"}
{"smiles": "CC1=CC2OC3CC4OC(=O)C=CC=CC(=O)OCCC(C)C(O)C(=O)OCC2(CC1O)C4(C)C31CO1", "note": "(stereo not given)", "activity change, negative = cytotoxicity": "inactive: -24.9%"}
{"smiles": "CC(=O)O[C@H]1CCC2C3CC[C@H]4[C@@H](O)[C@H](O)CC[C@]4(C)C3CC[C@@]21C", "note": "(stereo not given in full)", "activity change, negative = cytotoxicity": "inactive: -9.85%"}
{"smiles": "C[C@]12CCC3C(CC[C@H]4C[C@H](O)CC[C@]34C)C1CCC2=O", "note": "(stereo not given in full)", "activity change, negative = cytotoxicity": "inactive: -10.3%"}
{"smiles": "COc1ccc(CC2NCC(O)C2OC(C)=O)cc1", "note": "(stereo not given)", "activity change, negative = cytotoxicity": "inactive: -27.9%"}
{"smiles": "CC1=CC2OC3CC4OC(=O)C=CC=CC(C(C)O)OCC(O)C(C)CC(=O)OCC2(CC1O)C4(C)C31CO1", "note": "(stereo not given)", "activity change, negative = cytotoxicity": "inactive: -36.1%"}
{"smiles": "COC(=O)C12OCC34C(CC5C(C)=C(O)C(=O)CC5(C)C3C(O)C1O)OC(=O)C(OC(=O)/C=C(\\C)C(C)C)C24", "note": "(stereo not given)", "activity change, negative = cytotoxicity": "inactive: -30%"}
{"smiles": "CCOC(=O)C1C(=O)NC2(C)CC1c1cc(OC)ccc1O2", "note": "(stereo not given)", "activity change, negative = cytotoxicity": "inactive: 4.96%"}
{"smiles": "COc1cccc2c1O[C@H]1C(=O)CC[C@H]3CN(C)CCC231", "note": "(stereo not given in full)", "activity change, negative = cytotoxicity": "inactive: 4.28%"}
{"smiles": "C[C@@H]1C[C@@H]([C@H](O)CC2CC(=O)NC(=O)C2)C(=O)[C@@H](C)C1", "activity change, negative = cytotoxicity": "inactive: -29.7%"}
{"smiles": "CC1=CC2OC3CC4OC(=O)C=CC=CC(C(C)O)OCC(O)C5(C)OC5C(=O)OCC2(CC1O)C4(C)C31CO1", "note": "(stereo not given)", "activity change, negative = cytotoxicity": "inactive: -27.1%"}
{"smiles": "CC1CC(C)(O)CC(C(O)CC2CC(=O)NC(=O)C2)C1=O", "note": "(stereo not given)", "activity change, negative = cytotoxicity": "inactive: -21.6%"}
{"smiles": "COC(=O)C1=C(c2ccc(OCc3ccccc3)cc2)C[C@@H]2CC[C@H]1N2C(=O)NCc1ccc(OC)c(OC)c1", "activity change, negative = cytotoxicity": "inactive: -13.6%"}
{"smiles": "CC(C)N1CCN(Cc2c[nH]c3ccccc23)CC1CCO", "note": "(stereo not given)", "activity change, negative = cytotoxicity": "inactive: -3.14%"}
{"smiles": "CCN1C[C@]2(COC)CC[C@H](OC)[C@@]34C1[C@]1(OCO[C@@]15C[C@H](OC)[C@H]1C[C@@H]3[C@@H]5[C@H]1OC)[C@@H](O)[C@H]24", "activity change, negative = cytotoxicity": "inactive: 5.27%"}
{"smiles": "CC(=O)OC1(C)CC(C)C(=O)C(C(O)CC2CC(=O)NC(=O)C2)C1", "note": "(stereo not given)", "activity change, negative = cytotoxicity": "inactive: -14.8%"}
{"smiles": "CC(C)(O)/C=C/C(=O)C(C)(O)C1C(O)CC2(C)C3CC=C4C(C=C(O)C(=O)C4(C)C)C3(C)C(=O)CC12C", "note": "(stereo not given)", "activity change, negative = cytotoxicity": "inactive: -20.6%"}
{"smiles": "COC(=O)C1=C(c2ccc(F)cc2OCc2ccccc2)C[C@@H]2CC[C@H]1N2C(=O)NC1Cc2ccccc2C1", "activity change, negative = cytotoxicity": "inactive: -14.5%"}
{"smiles": "CCC(C)(O)C(=O)OC1C(=O)OC2CC3C(C)=CC(=O)C(O)C3(C)C3C4(O)OCC23C1C(C)C4O", "note": "(stereo not given)", "activity change, negative = cytotoxicity": "inactive: -21.9%"}
{"smiles": "COC(=O)C1=C(c2ccc(OCc3ccccc3)cc2)C[C@@H]2CC[C@H]1N2C(=O)NCCCCc1ccccc1", "activity change, negative = cytotoxicity": "inactive: -7.07%"}
{"smiles": "COC(=O)C1=C(c2ccc3ccccc3c2)C[C@@H]2CC[C@H]1N2C(=O)NCC1CC1", "activity change, negative = cytotoxicity": "inactive: -2.69%"}
